From article PMC8503651, “The Stress-Active Cell Division Protein ZapE Alters FtsZ Filament Architecture to Facilitate Division in Escherichia coli” (Frontiers in Microbiology, 2021)
No constants are given. Whether binding was seen depends on the method and setting. Sequences can lack the tags named with a protein.

Amino acid sequences for entries named in this document (tags omitted). Residues count along the entry.
UniProt P02769, residues 25-607: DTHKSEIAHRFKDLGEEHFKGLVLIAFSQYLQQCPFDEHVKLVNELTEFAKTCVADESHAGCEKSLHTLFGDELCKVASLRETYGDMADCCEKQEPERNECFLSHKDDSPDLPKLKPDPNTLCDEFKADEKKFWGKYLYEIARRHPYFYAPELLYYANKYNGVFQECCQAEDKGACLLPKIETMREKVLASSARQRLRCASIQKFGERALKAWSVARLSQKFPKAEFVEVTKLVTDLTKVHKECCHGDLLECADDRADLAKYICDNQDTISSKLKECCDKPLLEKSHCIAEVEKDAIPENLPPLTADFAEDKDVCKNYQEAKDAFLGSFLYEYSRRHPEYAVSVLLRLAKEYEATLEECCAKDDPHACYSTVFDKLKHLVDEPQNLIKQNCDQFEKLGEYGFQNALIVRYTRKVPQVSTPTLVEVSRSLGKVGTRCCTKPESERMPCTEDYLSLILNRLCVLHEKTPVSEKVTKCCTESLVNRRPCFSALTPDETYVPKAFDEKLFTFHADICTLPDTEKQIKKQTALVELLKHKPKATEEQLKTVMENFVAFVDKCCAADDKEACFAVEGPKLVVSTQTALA

Molecular target: bovine serum albumin (bovine) (UniProt P02769)
Assay: far-Western, overlay or dot blot; BSA, ZapE and FtsZ (10 μM each; FtsZ alone or with 2 mM GDP or 2 mM GTP) spotted on nitrocellulose, blocked with 2% BSA, incubated with ZapE (8 μM) and ATP (4 mM) in 50 mM HEPES pH 7.5, 150 mM KCl, 20 mM MgCl2, 23°C, 1 h; probed with anti-ZapE antiserum; both purified

B1: ZapE (N-terminal six histidine fusion protein) (enzyme, Escherichia coli, UniProt P64612 1-375, looked up)
chain: MQSVTPTSQYLKALNEGSHQPDDVQKEAVSRLEIIYQELINSTPPAPRTSGLMARVGKLWGKREDTKHTPVRGLYMWGGVGRGKTWLMDLFYQSLPGERKQRLHFHRFMLRVHEELTALQGQTDPLEIIADRFKAETDVLCFDEFFVSDITDAMLLGGLMKALFARGITLVATSNIPPDELYRNGLQRARFLPAIDAIKQHCDVMNVDAGVDYRLRTLTQAHLWLSPLHDETRAQMDKLWLALAGGKRENSPTLEINHRPLATMGVENQTLAVSFTTLCVDARSQHDYIALSRLFHTVMLFDVPVMTRLMESEARRFIALVDEFYERHVKLVVSAEVPLYEIYQGDRLKFEFQRCLSRLQEMQSEEYLKREHLAG
In the case of B1, the binding is reported as “no binding (tested: ZapE 8 μM on BSA spotted at 10 μM)”.
